{"sequences": {"note": "Chains of the proteins cited; added tags and fusions are not shown. Lines headed by an entry give the natural chain unless they say otherwise; changes in a name come on top. A line that says so, or that is headed by a name, gives the form on record, which may keep a tag or linker.", "UniProt Q13586": "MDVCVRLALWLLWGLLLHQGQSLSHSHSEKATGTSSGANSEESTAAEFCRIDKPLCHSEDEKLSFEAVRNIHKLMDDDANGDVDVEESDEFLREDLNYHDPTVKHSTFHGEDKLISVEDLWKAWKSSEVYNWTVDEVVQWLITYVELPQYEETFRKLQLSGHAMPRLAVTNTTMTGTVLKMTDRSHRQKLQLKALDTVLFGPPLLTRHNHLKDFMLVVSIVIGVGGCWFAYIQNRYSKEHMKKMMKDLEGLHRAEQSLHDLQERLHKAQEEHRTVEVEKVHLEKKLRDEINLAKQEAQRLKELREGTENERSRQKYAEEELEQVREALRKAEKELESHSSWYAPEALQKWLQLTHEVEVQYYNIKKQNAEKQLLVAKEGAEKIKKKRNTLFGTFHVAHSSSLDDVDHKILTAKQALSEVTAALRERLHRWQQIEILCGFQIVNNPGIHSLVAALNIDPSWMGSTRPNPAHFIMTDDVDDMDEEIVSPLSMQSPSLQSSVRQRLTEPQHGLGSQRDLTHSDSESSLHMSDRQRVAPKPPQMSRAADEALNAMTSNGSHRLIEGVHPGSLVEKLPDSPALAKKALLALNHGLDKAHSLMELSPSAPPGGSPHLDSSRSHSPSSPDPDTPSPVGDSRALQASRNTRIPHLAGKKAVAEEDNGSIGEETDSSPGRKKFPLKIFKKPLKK", "TRPC1 D639A&D640A-myc (DDAA) (P48995-2, form named)": "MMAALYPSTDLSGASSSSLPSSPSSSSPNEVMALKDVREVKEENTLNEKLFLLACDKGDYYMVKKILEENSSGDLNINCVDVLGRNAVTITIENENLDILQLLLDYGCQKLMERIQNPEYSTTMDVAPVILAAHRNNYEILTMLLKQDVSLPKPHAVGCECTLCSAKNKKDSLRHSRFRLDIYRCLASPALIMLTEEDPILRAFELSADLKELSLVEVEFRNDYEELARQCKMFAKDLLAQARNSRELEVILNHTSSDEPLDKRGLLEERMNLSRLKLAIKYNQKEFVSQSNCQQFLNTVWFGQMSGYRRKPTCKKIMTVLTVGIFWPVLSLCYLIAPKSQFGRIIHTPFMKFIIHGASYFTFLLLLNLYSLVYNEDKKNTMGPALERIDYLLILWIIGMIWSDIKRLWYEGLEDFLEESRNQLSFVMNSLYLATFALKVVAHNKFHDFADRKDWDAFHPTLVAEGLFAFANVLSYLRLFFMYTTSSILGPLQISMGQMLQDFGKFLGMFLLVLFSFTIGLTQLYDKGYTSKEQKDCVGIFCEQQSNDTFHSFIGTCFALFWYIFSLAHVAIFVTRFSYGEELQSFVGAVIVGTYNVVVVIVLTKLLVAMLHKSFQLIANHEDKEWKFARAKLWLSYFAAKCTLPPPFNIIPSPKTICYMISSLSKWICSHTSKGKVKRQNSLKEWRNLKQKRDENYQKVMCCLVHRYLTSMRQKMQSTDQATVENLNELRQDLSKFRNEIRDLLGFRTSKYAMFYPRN", "TRPC1-myc (P48995-2, form named)": "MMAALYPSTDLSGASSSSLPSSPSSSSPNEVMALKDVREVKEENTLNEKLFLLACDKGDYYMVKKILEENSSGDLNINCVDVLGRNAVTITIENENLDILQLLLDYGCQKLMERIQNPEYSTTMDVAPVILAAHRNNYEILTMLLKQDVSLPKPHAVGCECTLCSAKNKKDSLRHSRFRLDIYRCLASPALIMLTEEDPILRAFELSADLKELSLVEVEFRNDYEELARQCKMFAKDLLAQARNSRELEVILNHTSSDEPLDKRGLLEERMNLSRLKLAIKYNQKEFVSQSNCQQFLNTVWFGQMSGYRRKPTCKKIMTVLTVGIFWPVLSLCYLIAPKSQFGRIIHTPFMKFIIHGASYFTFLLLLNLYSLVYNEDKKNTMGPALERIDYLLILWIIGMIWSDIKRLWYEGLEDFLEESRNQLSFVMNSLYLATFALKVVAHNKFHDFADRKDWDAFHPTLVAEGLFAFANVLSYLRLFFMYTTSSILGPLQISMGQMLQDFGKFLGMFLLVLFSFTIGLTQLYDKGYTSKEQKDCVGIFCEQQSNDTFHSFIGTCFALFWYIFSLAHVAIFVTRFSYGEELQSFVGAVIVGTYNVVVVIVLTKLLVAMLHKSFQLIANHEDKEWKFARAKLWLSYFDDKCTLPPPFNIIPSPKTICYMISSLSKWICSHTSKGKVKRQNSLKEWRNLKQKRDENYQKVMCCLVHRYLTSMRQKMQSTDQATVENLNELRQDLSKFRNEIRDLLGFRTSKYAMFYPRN"}, "source": "paper PMC9618025", "key": {"[1]": {"target": "STIM1-FLAG (Stromal Interaction Molecule 1, FLAG-tagged) (human) (UniProt Q13586)", "experiment": "co-IP; A549 cells expressing STIM1-FLAG (or mutants) and TRPC1-myc (or DDAA), treated with or without 800 μM PQ for 30 min; RIPA lysate, FLAG-M2 beads or Myc beads as indicated, 3 h at 4 °C"}, "[2]": {"target": "STIM1-FLAG (Stromal Interaction Molecule 1, FLAG-tagged) (human) (UniProt Q13586)", "experiment": "co-IP; A549 cells stably expressing STIM1-FLAG or STIM1ΔK-FLAG, treated with or without 800 μM PQ for 24 h; RIPA lysate, FLAG-M2 beads 3 h at 4 °C, washed with PBS; blots for ORAI1 and TRPC1"}}, "note": "These are yes or no findings as the source states them, for the method shown. In cells and extracts the contact can be indirect. Binding can be weak; no strength is given.", "data": [{"substance": "TRPC1 D639A&D640A-myc (DDAA) (from UniProt P48995-2 1-759)", "values": [{"measurement": "binding", "setting": "[1]", "result": "binds"}]}, {"substance": "Transient Receptor Potential Cation Channel Subfamily C Member 1 (TRPC1), endogenous in A549 cells (from UniProt P48995-2 1-759)", "values": [{"measurement": "binding", "setting": "[2]", "result": "binds"}]}, {"substance": "TRPC1-myc (from UniProt P48995-2 1-759)", "values": [{"measurement": "binding", "setting": "[1]", "result": "binds"}]}]}
